Results as given in patent US11325913B2, “Compounds and methods for the treatment of malaria” (THE BROAD INSTITUTE, INC., priority 2013, dated 2022).
For at least one compound, name, drawing or mass did not settle the structure.

Test system: P. berghei (ANKA luc-GFP) sporozoites
Experiment: In vivo P. berghei liver stage assay
Parameters: species or system CD-1 mice
Settings: atovaquone control, dose not given
Description: CD-1 mice were inoculated (IV) with 1×10^5 P. berghei (ANKA luc-GFP) sporozoites freshly dissected out from A. stephensi and immediately treated with a single dose (PO) of vehicle or compound 37 (25, 5.0, 1.0 or 0.2 mg/kg) at 0 hour. Bioluminescence signals from the transgenic parasites were monitored by the In vivo Imaging System (IVIS 100, Xenogen; Caliper Life Science).
The ED50 for compound 37 in this assay was 1 mg/kg.

O=C1C(O)=C([C@H]2CC[C@H](c3ccc(Cl)cc3)CC2)C(=O)c2ccccc21 [atovaquone, reference compound]
parasitemia after sporozoite inoculation: remained parasite free
